Experimental data reported in patent US4804664A, “Method and pharmaceutical preparation for treating chronic obstructive airway disease and cardiac disease, and intermediates for the preparation of therapeutically active xanthine derivatives” (priority 1978, dated 1989).

Tested on: Guinea-Pig Trachea
Assay: Relation between therapeutic ratios (bronchodilator dose : toxic dose) for theophylline and each compound
Details: theophylline = 1; ( ) denotes onesided 95% confidence interval

SMILES | relation between therapeutic ratios for theophylline and each compound, onesided 95% confidence bound
CCCn1c(=O)[nH]c(=O)c2[nH]cnc21 [D 4028, 3,7-dihydro-3-propyl-1H-purine-2,6-dione] | ≥ 2.1
CC(C)Cn1c(=O)[nH]c(=O)c2[nH]cnc21 [D 4030, 3,7-dihydro-3-(2-methylpropyl)-1H-purine-2,6-dione] | ≥ 1.3
CCCCn1c(=O)[nH]c(=O)c2[nH]cnc21 [D 4031, 3-butyl-3,7-dihydro-1H-purine-2,6-dione] | ≥ 1.5
